Drawing on paper PMC7819943, “Rice protein-binding microarrays: a tool to detect cis-acting elements near promoter regions in rice”, this text covers binding signal for 54 sequences.

By UniProt entry, the sequences of proteins in these tests, tags left out.
UniProt Q0JBA9, entry or part of it: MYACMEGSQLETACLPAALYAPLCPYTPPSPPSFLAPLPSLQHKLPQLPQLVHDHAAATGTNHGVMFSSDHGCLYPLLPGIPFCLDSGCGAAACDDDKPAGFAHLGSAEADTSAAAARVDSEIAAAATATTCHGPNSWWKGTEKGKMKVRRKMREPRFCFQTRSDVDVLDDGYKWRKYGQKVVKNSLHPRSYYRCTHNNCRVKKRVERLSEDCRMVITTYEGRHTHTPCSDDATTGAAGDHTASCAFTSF

The list shows a part of the results.

In this assay the target is OsWRKY34 (Oryza sativa, UniProt Q0JBA9 1-250). Put plainly: protein-binding microarray (RPBM); PBS, 2% BSA, 51.3 ng/ul salmon testes DNA, 50 uM zinc acetate, 200 nM TF, 25 C, 1 h; high values mean tight binding. The settings on record: protein: recombinant; tags: N-terminal polyhistidine and DsRed monomer fusion (pET32a); label: CyDye5-dUTP incorporated in the synthesized complementary strand; 3' TTTTT single-stranded linker to array surface; dsDNA, one strand shown. An outline of the steps:
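Polyhistidine-tagged DsRed fusions of transcription factors, joined at the N-terminus, were expressed in E. coli BL21-CodonPlus and isolated on Ni–NTA. They were incubated at 200 nM for 1 h at 25 °C on a custom Agilent array, double-stranded and BSA-blocked, in PBS with 2% BSA, salmon testes DNA and 50 µM zinc acetate. The binding signal is per-feature fluorescence intensity (arbitrary units) read on an Axon 4000B scanner after washing.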
Regarding “TATTGGTTTTTGTTTCTGGTGCCACGTCTGCGGCCAAAAACGGAGTCACCTAGTGCAG”, the binding signal is 9220 fluorescence intensity (a.u.). Consider “TAGGGTTTGGTTGGGTTTTTGGGTGTTTTCAGACGGAGAGCGGAGTCACCTAGTGCAG”, for which the binding signal was 12800 fluorescence intensity (a.u.). As to “AAAAAAAAACTAGCACCATACCGATCACTGCTATGTGTGACGGAGTCACCTAGTGCAG”, the binding signal was 8950 fluorescence intensity (a.u.). For “TCGTCCATGCTCCATACCCCATGTTACCCCATCGCTCATTCGGAGTCACCTAGTGCAG” the value was 9610 fluorescence intensity (a.u.); for “AATATGCATCGCTTCCATGTTGACATGTTTCTAAGTGTCACGGAGTCACCTAGTGCAG”, 8320 fluorescence intensity (a.u.); for “GTTCTTCGTTAATACGGTGCTTTCATTATTTTGTTTTCCCCGGAGTCACCTAGTGCAG”, 16600 fluorescence intensity (a.u.). As for “CATCGACGCACGCGTCGTCGCGTACCATATATCGCACGCGCGGAGTCACCTAGTGCAG”, the figure is 8040 fluorescence intensity (a.u.); as for “AATCTAACGGGTGGGTCTCATGTATTGATGAGGAAGAAGACGGAGTCACCTAGTGCAG”, 20800 fluorescence intensity (a.u.); as for “CCATCGCTAGACCGTTAGTTCCGCTGCTGTTTTTCTTTTCCGGAGTCACCTAGTGCAG”, 10300 fluorescence intensity (a.u.). As to “GGTGATTTTTCCGACTCGGCCACGTGAATTTTCCGACTCGCGGAGTCACCTAGTGCAG”, the binding signal was 8180 fluorescence intensity (a.u.). Take “TGTACTTTTCCCAATCCCTAGTCATCCCTTTACTAGGCCCCGGAGTCACCTAGTGCAG”: the binding signal was 9790 fluorescence intensity (a.u.). As for “CTGTTCGACGTTTTACCACCAGCGCCCACGGGATTTTCACCGGAGTCACCTAGTGCAG”, the binding signal was 9420 fluorescence intensity (a.u.). With “GTCGCTTCGTGTTTTATCTGAGAGTTGTTGCTTTATTATTCGGAGTCACCTAGTGCAG”, the binding signal is 14200 fluorescence intensity (a.u.).

Regarding “TGGCTAACTACTCAACATGCACTTGGTTCATTCGCCGTCACGGAGTCACCTAGTGCAG”, the binding signal is 8680 fluorescence intensity (a.u.). For “TACCGGCGATTCTCCTGCGCGCGGCCGCCGCCGCCCCAGCCGGAGTCACCTAGTGCAG” the value was 8250 fluorescence intensity (a.u.); for “AAAATCTGTCATCGTCGTATCATGCATGTCGAATGTTTTGCGGAGTCACCTAGTGCAG”, 8380 fluorescence intensity (a.u.). For “GTGTCTGCGACAACCGGCTGTGGGGAGGTTAGGAATTTTCCGGAGTCACCTAGTGCAG”, the binding signal was 9280 fluorescence intensity (a.u.). For “TTGATAGGTGAGGGACCCGTTATGTCTGGTTTTCCAATCGCGGAGTCACCTAGTGCAG”, the binding signal is 8650 fluorescence intensity (a.u.). Turning to “ACGATAAACTCACCAAACCCGTCCCACCGCAGCCCACCGACGGAGTCACCTAGTGCAG”, the binding signal was 8190 fluorescence intensity (a.u.).

For the sequence “AATGTGTATTGATATATCCGATGTGACAGCTAAATTTAAACGGAGTCACCTAGTGCAG”, the binding signal was 8740 fluorescence intensity (a.u.). For the sequence “AGTACTGGGAGGGAGGGAGTCTGTCTCAACCTGCATTTGCCGGAGTCACCTAGTGCAG”, the binding signal is 9500 fluorescence intensity (a.u.). For “CTCTGCCAAACAAACCGCTAGACTTCATCCTCGCTCTCTCCGGAGTCACCTAGTGCAG” the value was 10900 fluorescence intensity (a.u.); for “CATACCTCATCAGATCATGCCCGTCATCTCCGTCATCTCCCGGAGTCACCTAGTGCAG”, 9310 fluorescence intensity (a.u.); for “TTTTTGTTTTTTAATTGTGGAGTTTGGGAGGAGGAGGGGACGGAGTCACCTAGTGCAG”, 9870 fluorescence intensity (a.u.).

In the case of “TTTCCTGCTTTGTTTGATCATATCTGTGTGTTTTGTCCTACGGAGTCACCTAGTGCAG”, the binding signal was 14100 fluorescence intensity (a.u.). As for “AATCCCAGCTCTATGTGTCCTCGAGCTTCTTGTCCTAGACCGGAGTCACCTAGTGCAG”, the figure is 9720 fluorescence intensity (a.u.); as for “GCCTTAGGAATCACCATTTTGTTACTACATTTTAACTGTTCGGAGTCACCTAGTGCAG”, 9670 fluorescence intensity (a.u.); as for “ATAGAGTTCCTGTTTGTATTCTCGAAAGAGTTCCTGTTTGCGGAGTCACCTAGTGCAG”, 9960 fluorescence intensity (a.u.). For “TCTATGGGTTCTGTTCCGTTCTGTTCTGGCGCTCCTCTCTCGGAGTCACCTAGTGCAG” the value was 13700 fluorescence intensity (a.u.). As for “GGGCGGAGAGTTGGGGTTTGGGTTGGTGGCGGTGGGCCGGCGGAGTCACCTAGTGCAG”, the figure is 14800 fluorescence intensity (a.u.); as for “CTCTTCCATTGCAAAATGCACGTTAAGACCATGTTTTAAACGGAGTCACCTAGTGCAG”, 8370 fluorescence intensity (a.u.); as for “TATTGCACCGGTTTCTGGATTCTGGTTGAACGACGAAAATCGGAGTCACCTAGTGCAG”, 8070 fluorescence intensity (a.u.). As to “TATGTTGTTTAGGGGCGGATCTATAGTATATGCGTCGGTGCGGAGTCACCTAGTGCAG”, the binding signal was 8580 fluorescence intensity (a.u.).

“GAGACTTTGGGGATCAAGATGACACAACCCTACATGTTTACGGAGTCACCTAGTGCAG”: the binding signal was 8040 fluorescence intensity (a.u.).

For the sequence “GGAGGGTGGGGTAGGAGAGGATGCGGCGGGCGCCATGGCTCGGAGTCACCTAGTGCAG”, the binding signal was 8590 fluorescence intensity (a.u.). As for “AATCTTGTCTTTAGAGTGTATGCATTTGGTTTGTATAGGTCGGAGTCACCTAGTGCAG”, the binding signal was 8350 fluorescence intensity (a.u.).

“GCACCAGAGTGCTCCGAGGCTTTTCTTACTGGCATGTTTGCGGAGTCACCTAGTGCAG”: the binding signal was 8590 fluorescence intensity (a.u.). Consider “CCGCCGCCACCACCACCGCCACCGCCGCCGCCGAGCGATGCGGAGTCACCTAGTGCAG”, for which the binding signal is 9880 fluorescence intensity (a.u.). For “TTTCTGTCCATTATGTTTAAACCTCAATATCAGACATCTTCGGAGTCACCTAGTGCAG” the value was 8670 fluorescence intensity (a.u.). “GGCCTTGTGTTTTCTGTACATCGCTGTCGTCTCCTCAGTCCGGAGTCACCTAGTGCAG”: the binding signal was 15200 fluorescence intensity (a.u.). For “CTTTGCATTTCCGCCTCGTCTTTTCCGCCTCGTCTTTTCGCGGAGTCACCTAGTGCAG” the value was 9920 fluorescence intensity (a.u.); for “AATCTACCATTTTTCACGAAATTCCATCGGTTCTATGAACCGGAGTCACCTAGTGCAG”, 8820 fluorescence intensity (a.u.); for “ACATGTTTTCCAGTTTTCCTGTTGCATACAAATGCATCTGCGGAGTCACCTAGTGCAG”, 8440 fluorescence intensity (a.u.). Consider “CTTTCGGTTGGGCTATTTGTATCTGCGGTGGCCGAAATATCGGAGTCACCTAGTGCAG”, for which the binding signal was 9350 fluorescence intensity (a.u.). “ATATATATATATATATATACCTGTCGATGGTAAAATATGACGGAGTCACCTAGTGCAG”: the binding signal is 9860 fluorescence intensity (a.u.). As for “AAGTCTCAACGCACTCCGGTCAACGCTACGGTCAAACAGACGGAGTCACCTAGTGCAG”, the figure is 8630 fluorescence intensity (a.u.); as for “CTGCTCTGCTCCTTGACTTCTTCTTGCCACACAGCAGTACCGGAGTCACCTAGTGCAG”, 9060 fluorescence intensity (a.u.); as for “TTCTGTTGACTTTTCAGATAATATTTAATTGTTCTTCTTACGGAGTCACCTAGTGCAG”, 16000 fluorescence intensity (a.u.). As to “GCCCGACTCCATTCATGTCAATCTCAGCATATCTTTTTTTCGGAGTCACCTAGTGCAG”, the binding signal is 13300 fluorescence intensity (a.u.).

With “TGCAAGGCTTCTTGGATTTTAGTGTGGCTTCTCTGCTCTCCGGAGTCACCTAGTGCAG”, the binding signal was 8860 fluorescence intensity (a.u.). “AACTTCTTGCATGTGCCTTTTTTATCATCTGCATATATTTCGGAGTCACCTAGTGCAG”: the binding signal was 10300 fluorescence intensity (a.u.). On to “ATTTTCTTGCACACTGAACTAGTGAACTTTTTTCCCTGTCCGGAGTCACCTAGTGCAG”, for which the binding signal is 9450 fluorescence intensity (a.u.). For “GTGGTCTGCTTGCTTTTGGTCCTATCCTTTGTAGTCAAGACGGAGTCACCTAGTGCAG” the value was 9570 fluorescence intensity (a.u.). For the sequence “TCGGGCGTTGTTTGACCGAAGTTGACCGTCTACGTGGCATCGGAGTCACCTAGTGCAG”, the binding signal is 11500 fluorescence intensity (a.u.).
